In ChEMBL document CHEMBL3243918, “Synthesis and adrenergic beta-blocking activity of some 1,3-benzodioxole derivatives” (J Med Chem, 1977) one finds pA2 data, which are given here for one molecule.

The pA2 is the negative logarithm of the molar antagonist concentration that doubles the agonist concentration needed for the same response.

A short description of the test: Antagonist activity at guinea pig atrial beta adrenergic receptor assessed as isometric contractions by force displacement transducer. Format: tissue-based, Cavia porcellus, Cardiac atrium.

With `CC(C)NCC(O)COc1cccc2ccccc12` (stereo unspecified) [PROPRANOLOL], the pA2 was 8.2.
